# From PubChem BioAssay AID720565 (National Center for Advancing Translational Sciences (NCATS), 2013)
# “And” between values parts separate entries of the source, which are not always exact repeats. Identical values can stand only once. The inconclusive results got no clear call from the source; some entries with a clear call stand among them for comparison. Where the call is inconclusive, the potency comes from a doubtful curve fit. The source made the active and inactive calls. The call rests on the fitted dose curve; in most records, active means well fitted activation curve with a large enough effect; inconclusive means small, poorly fitted or top-dose-only effect; inactive means no such curve, though single readings can be large or run the other way.
# Assay: qHTS for small molecules that induce genotoxicity in ELG1 expressing cells: Confirmatory Assay for Cherry-picked Compounds; further: nearly all actives have a fitted effect of over 35% in size
# Conditions: ELG1-luciferase reporter cells, luminescence, 16 h; series mostly up to 46.1 µM
# Excerpt: Cancer cells divide rapidly compared to normal cells in the body. During cell division, cancer cells need to duplicate their genome by DNA replication. The failure of genome duplication leads to cancer cells' death. Therefore, inhibitors of DNA replication could specifically kill cancer cells. Based on this concept, many chemotherapeutic agents were developed and have been used to treat cancer patients. However, there are a limited number of agents available in the clinical setting, and some of those that do exist have low efficacy and severe side effects. Therefore, if we can find the compounds that effectively block DNA replication either by directly damaging DNA or by inhibiting other cellular mechanisms, the options for cancer treatment will be broadened. We developed a quantitative high-throughput ELG1-luciferase reporter gene assay. Since the level of human ELG1 protein is enhanced in response to genetic stresses, increases in luciferase activity can be used to identify compounds that cause genetic stress. The data herein is the result of the confirmation assay against the cherry picked compounds selected from the primary qHTS (AID 504466). Activation is the desired outcome for this assay. NIH Chemical Genomics Center [NCGC] NIH Molecular Libraries Probe Centers Network [MLPCN] MLPCN Grant: MH092164 Assay Provider: Kyungjae Myung, National Human Genome Research Institute, NIH
# For genotoxicity screening, 2,000 cells/ well (5 uL volume) were dispensed into white, solid-bottom 1536-well plates using a solenoid-based dispenser. Following transfer of 23 nL compound or DMSO vehicle by a pin tool, the plates were incubated 16 hr at 37 C, 5% CO2. Five microliter of ONE-Glo reagent (Promega) was then added to each plate. The assay plates were incubated for 30 min at room temperature followed by quantification of the luciferase activity using the PerkinElmer ViewLux CCD-based plate reader.
# Potency means the concentration at half of the fitted maximal effect.
row,Structure (SMILES),Potency
1,O=C(CSc1nnc(-c2cccc(Cl)c2)o1)Nc1ccc2c(c1)OCCO2,active: 15.8 µM
2,COc1cc(OC)cc(-c2cc3cc4c(cc3cn2)OCO4)c1,active: 5.6 µM
3,Cc1cccc(C(=O)OCC(=O)N2CCCCCC2)c1O,"inconclusive: 25 µM [activator, single point]"
4,COc1cc(OC)c2c(-c3cccc(-c4ccc(N(C)C)cc4)c3)cc(=O)oc2c1,"inconclusive: 11.2 µM [activator, partial curve]"
5,O=C(CCN1C(=O)NC2(CCCC2)C1=O)Nc1ccc(-c2nc3ccccc3s2)cc1,active: 0.706 µM
6,COc1ccc(/C=C/c2ccc3ccccc3n2)cc1OC,"inconclusive: 31.5 µM [activator, single point]"
7,O=C(CSc1nnc(Cc2ccccc2)o1)Nc1ccc(Br)cn1,inactive
8,CCOc1ccc2cc(C#N)c(SCC(=O)N3CCOCC3)nc2c1,"inconclusive: 4.45 µM [activator, full curve]"
9,N#C/C(=C\c1cccnc1)c1ccccn1,inactive
10,Cc1cccc(NC(=O)CSc2nc3ccccc3o2)c1,"inconclusive: 15.8 µM [activator, partial curve]"
11,CCn1c(=O)n(CC)c2cc(S(=O)(=O)N3CCC(c4ccccc4)CC3)ccc21,inactive
12,COc1ccc(OC)c(-c2nnc3n2N=C(c2ccc(OC)c(OC)c2)CS3)c1,"inconclusive: 1.58 µM [activator, full curve]"
13,Cc1ccc(-c2nc3ccccc3n3nnnc23)cc1,"inconclusive: 5.61 µM [activator, full curve]"
14,CCSc1nnc(NC(=O)c2csc(C)c2)s1,"inconclusive: 3.97 µM [activator, full curve]"
15,Cc1cccc(Cn2cc(SCC(=O)Nc3nccs3)c3ccccc32)c1,"inconclusive: 6.29 µM [activator, full curve, poor fit]"
16,CN(C(=O)CN1C(=O)c2ccccc2S1(=O)=O)C1CCCCC1,"inconclusive: 11.2 µM [activator, partial curve]"
17,Oc1ccc(CCc2ccccc2F)c2cccnc12,active: 14.1 µM
18,CC(=O)c1cc2c(cc1NC(=O)CSc1nc3ccccc3o1)OCO2,inactive
19,O=C(CCN1C(=O)c2ccccc2C1=O)Nc1ccc(-c2nc3ccccc3o2)cc1,"inconclusive: 2.57 µM [activator, full curve] and inconclusive: 3.54 µM [activator, partial curve]"
20,Cn1cccc1C(=O)OCC(=O)c1c[nH]c2ccccc12,active: 5.6 µM
21,CCOC(=O)N1CCN(C(=O)CSCC(=O)Nc2nc(-c3ccc(-c4ccccc4)cc3)cs2)CC1,inactive
22,CNc1ccc(/C=C2\C=Cc3ccccc32)cc1,active: 0.792 µM
23,Cc1cccc(-c2noc(CCC(=O)N3CCN(c4cc(C)ccc4C)CC3)n2)c1,"inconclusive: 14.1 µM [activator, partial curve]"
24,CN(Cc1ccco1)c1ncnc2ccc(-c3cccc(Cl)c3)cc12,inactive
25,Cc1ccc(-c2cc(C(=O)NCc3cccs3)no2)cc1,"inconclusive: 3.97 µM [activator, partial curve]"
26,COc1ccc(C2=Nn3c(nnc3-c3ccccc3OC)SC2)cc1OC,"inconclusive: 2.5 µM [activator, full curve]"
27,CC(=O)Nc1sc2c(c1-c1nc3ccccc3s1)CCCNC2,"inconclusive: 17.7 µM [activator, single point]"
28,Cc1cc(=O)oc2cc(NC(=O)c3ccc(OC(F)F)cc3)ccc12,"inconclusive: 7.05 µM [activator, partial curve]"
